Tests used:
Rattus norvegicus [1] = organism: Rattus norvegicus; test: Open TG-GATES - Regimen: Daily Repeat; assay type: toxicity, organism-based, Sprague-Dawley; design: regimen Daily Repeat, gender Male, age 6 weeks; settings: in vivo, po, 60 mg/kg, tissue Plasma, route gavage, dose level Middle, time 14 day
Rattus norvegicus [2] = organism: Rattus norvegicus; test: Open TG-GATES - Regimen: Single; assay type: toxicity, organism-based, Sprague-Dawley; design: regimen Single, gender Male, age 6 weeks; settings: in vivo, po, 400 mg/kg, 24 h, tissue Plasma, route gavage, dose level High

CC(C)Cc1ccc(C(C)C(=O)O)cc1 (configuration not stated) [IBUPROFEN]
BUN (Rattus norvegicus [1]): 19.4 mg/dL
TC (Rattus norvegicus [2]): 67.6 mg/dL
